The supplement of paper PMC10849652
This is one part of the list. Residues, ends and D or L forms follow the SMILES beside them. *: point of attachment. Cbz = O=C(OCc1ccccc1)*

Protein sequences, listed by entry. Tags and fused reporters are not part of them. Lines headed by an entry give the natural chain unless they say otherwise; changes in a name come on top.
UniProt Q9NZM1: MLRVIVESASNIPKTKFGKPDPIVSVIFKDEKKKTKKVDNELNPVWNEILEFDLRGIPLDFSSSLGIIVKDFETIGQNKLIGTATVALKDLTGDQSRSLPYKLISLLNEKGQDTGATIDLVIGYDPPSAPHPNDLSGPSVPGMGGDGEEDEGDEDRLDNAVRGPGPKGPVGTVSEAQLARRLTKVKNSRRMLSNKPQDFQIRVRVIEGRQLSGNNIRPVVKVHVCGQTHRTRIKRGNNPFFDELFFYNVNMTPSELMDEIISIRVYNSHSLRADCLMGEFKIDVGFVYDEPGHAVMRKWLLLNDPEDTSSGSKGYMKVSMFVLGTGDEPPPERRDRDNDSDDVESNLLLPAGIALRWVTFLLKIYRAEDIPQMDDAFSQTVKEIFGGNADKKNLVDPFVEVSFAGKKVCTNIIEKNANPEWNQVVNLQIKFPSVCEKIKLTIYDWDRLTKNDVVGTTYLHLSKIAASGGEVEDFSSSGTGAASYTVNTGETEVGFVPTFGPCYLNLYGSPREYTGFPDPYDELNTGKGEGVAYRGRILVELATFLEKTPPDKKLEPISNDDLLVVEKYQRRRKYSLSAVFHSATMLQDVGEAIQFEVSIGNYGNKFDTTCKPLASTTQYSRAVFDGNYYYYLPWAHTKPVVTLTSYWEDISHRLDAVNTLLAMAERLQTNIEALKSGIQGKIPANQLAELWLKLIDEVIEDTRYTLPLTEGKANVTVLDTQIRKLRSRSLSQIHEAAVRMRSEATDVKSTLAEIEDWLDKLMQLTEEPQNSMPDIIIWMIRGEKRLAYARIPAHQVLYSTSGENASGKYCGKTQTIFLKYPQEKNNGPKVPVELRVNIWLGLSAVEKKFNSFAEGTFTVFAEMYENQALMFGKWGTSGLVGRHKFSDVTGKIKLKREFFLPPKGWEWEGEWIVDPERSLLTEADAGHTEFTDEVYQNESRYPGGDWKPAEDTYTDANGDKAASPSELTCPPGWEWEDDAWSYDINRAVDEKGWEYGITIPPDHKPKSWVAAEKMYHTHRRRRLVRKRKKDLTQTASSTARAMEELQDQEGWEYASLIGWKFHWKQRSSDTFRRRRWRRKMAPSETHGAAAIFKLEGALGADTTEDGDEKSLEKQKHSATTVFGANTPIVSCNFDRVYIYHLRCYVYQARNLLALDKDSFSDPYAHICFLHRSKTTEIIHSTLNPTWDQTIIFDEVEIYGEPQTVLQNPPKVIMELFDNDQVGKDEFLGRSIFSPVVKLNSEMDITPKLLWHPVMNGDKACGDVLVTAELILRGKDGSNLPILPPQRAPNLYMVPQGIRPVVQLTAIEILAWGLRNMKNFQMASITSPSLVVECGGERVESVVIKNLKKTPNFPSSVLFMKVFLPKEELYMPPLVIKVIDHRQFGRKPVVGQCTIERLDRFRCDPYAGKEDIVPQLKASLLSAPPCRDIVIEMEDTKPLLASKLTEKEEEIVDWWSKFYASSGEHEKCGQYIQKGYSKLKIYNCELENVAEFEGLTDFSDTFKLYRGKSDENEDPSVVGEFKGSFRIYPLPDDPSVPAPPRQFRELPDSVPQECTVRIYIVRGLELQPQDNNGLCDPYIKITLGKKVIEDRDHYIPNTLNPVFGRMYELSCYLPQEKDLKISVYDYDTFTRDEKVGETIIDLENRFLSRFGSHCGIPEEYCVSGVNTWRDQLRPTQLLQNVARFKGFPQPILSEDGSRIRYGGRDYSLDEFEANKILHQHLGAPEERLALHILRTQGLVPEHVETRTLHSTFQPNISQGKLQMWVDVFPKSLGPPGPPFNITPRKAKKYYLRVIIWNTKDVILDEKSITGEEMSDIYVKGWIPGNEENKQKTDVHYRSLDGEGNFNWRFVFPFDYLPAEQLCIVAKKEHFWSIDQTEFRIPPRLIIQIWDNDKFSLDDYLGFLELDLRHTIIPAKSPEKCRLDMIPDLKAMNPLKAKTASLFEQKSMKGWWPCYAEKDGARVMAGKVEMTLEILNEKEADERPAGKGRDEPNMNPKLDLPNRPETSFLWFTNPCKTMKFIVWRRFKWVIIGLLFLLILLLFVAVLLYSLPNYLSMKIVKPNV
UniProt Q9Y6Q9, whole entry, looked up: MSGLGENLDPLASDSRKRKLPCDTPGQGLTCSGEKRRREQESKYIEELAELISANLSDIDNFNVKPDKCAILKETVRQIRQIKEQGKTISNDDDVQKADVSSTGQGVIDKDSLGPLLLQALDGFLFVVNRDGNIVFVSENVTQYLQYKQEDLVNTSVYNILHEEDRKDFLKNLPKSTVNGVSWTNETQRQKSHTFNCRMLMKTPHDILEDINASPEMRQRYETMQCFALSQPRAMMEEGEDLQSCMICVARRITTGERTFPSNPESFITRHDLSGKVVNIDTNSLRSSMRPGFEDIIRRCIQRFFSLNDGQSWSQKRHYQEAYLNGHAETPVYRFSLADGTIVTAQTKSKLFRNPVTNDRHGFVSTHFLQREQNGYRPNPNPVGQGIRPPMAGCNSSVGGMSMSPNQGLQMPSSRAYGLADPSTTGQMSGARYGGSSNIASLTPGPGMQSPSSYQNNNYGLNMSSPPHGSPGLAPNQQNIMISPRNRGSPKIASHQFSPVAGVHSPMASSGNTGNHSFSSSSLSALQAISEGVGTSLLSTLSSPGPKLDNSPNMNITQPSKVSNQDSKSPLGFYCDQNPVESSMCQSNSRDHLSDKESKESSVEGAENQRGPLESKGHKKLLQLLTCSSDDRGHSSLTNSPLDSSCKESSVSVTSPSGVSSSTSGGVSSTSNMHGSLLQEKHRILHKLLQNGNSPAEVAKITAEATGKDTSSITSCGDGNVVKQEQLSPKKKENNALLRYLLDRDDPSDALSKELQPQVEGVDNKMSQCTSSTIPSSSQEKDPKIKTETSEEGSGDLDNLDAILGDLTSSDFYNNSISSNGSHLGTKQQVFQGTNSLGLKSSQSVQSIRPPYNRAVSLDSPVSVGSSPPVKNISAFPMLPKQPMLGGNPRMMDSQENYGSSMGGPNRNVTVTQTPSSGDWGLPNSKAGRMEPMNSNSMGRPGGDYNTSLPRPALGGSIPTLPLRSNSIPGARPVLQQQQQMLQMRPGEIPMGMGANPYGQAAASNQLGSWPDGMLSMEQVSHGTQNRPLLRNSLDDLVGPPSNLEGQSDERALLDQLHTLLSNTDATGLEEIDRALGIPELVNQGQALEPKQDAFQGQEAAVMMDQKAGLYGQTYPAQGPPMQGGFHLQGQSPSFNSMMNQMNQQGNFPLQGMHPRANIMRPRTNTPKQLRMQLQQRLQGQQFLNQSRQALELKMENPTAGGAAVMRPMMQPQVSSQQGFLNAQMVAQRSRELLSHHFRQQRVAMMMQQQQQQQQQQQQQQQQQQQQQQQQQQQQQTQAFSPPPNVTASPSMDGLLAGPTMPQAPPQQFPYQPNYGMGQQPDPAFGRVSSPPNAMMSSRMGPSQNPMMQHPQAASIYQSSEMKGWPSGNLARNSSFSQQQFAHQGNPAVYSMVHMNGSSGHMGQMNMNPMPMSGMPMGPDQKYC
UniProt Q6ZNJ1: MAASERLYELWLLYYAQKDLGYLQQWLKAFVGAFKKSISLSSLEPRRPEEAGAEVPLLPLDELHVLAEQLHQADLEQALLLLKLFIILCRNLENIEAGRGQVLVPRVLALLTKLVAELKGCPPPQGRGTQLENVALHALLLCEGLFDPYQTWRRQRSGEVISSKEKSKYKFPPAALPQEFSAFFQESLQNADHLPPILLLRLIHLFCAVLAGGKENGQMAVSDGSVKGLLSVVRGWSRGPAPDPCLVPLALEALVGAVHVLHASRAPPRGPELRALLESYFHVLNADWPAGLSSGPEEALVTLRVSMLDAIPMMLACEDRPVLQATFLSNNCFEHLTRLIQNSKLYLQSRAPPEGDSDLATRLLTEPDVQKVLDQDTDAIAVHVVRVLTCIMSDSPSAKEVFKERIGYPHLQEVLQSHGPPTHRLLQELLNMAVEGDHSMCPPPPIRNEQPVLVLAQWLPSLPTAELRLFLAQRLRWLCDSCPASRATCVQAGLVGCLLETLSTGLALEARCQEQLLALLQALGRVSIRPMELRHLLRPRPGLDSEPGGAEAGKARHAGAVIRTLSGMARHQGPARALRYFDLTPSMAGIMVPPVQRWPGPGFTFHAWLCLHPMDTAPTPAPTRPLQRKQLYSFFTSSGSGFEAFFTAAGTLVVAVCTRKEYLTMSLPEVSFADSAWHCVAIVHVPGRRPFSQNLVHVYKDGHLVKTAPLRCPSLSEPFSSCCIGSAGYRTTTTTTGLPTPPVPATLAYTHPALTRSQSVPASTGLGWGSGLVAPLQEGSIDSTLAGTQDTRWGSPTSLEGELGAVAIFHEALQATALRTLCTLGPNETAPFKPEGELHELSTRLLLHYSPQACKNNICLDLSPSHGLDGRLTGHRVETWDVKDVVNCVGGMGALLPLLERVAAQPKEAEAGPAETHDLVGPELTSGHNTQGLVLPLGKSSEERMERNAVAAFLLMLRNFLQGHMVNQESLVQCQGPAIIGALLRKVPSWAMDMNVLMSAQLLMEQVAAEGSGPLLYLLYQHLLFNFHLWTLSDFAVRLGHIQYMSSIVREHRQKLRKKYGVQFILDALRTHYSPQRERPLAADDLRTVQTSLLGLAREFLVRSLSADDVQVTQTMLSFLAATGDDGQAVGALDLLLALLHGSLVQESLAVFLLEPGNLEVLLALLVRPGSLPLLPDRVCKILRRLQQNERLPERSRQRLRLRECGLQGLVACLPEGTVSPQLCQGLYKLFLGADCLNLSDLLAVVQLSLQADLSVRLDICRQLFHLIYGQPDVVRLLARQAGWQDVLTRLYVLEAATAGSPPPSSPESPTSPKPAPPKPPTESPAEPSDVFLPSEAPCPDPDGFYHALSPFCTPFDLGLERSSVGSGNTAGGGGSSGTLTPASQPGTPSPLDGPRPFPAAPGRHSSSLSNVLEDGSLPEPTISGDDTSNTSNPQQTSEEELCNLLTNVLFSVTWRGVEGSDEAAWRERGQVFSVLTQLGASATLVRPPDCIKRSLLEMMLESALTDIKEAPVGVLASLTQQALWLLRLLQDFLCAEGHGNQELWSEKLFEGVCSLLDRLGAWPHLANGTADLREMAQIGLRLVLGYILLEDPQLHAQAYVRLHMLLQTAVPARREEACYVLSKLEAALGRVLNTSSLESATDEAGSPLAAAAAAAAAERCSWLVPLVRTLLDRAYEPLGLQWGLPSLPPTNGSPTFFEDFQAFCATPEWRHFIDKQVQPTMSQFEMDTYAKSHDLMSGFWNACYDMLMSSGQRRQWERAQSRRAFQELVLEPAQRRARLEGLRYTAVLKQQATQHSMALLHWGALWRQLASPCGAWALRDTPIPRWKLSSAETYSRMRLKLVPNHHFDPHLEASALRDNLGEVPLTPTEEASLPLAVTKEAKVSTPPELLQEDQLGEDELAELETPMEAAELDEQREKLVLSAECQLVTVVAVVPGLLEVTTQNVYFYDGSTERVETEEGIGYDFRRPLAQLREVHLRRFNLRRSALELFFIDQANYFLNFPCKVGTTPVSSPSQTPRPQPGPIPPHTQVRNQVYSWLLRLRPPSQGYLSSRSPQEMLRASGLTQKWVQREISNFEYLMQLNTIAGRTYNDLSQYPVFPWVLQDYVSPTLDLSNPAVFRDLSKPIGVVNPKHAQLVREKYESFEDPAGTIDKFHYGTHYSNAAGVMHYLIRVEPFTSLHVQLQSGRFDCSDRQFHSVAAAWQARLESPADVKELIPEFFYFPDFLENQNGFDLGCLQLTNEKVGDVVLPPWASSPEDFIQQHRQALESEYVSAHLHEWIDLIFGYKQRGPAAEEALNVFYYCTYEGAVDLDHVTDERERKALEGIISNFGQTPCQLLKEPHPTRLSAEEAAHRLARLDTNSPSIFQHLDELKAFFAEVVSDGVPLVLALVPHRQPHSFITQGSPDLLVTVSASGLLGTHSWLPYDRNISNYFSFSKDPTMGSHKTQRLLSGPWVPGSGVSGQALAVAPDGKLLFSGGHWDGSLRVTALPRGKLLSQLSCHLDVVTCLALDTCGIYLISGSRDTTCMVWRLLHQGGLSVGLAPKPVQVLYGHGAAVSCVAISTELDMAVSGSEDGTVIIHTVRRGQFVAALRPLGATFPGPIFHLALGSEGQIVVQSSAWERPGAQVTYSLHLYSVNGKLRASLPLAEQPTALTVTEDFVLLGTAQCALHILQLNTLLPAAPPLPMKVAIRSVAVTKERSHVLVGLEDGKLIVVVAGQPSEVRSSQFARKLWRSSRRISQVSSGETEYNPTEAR

Tests used:
Test in all cases: log2 fold change, soluble protein after heating vs DMSO (PISA); higher = thermal stabilisation; K562 cells, 10 uM, 30 min; active = over 0.2 and 3.5 SD of the protein, either way, in both replicates (recomputed)
[1] = compound: C/C(=N\NC(=O)C1=CC(=CC=C1)S(=O)(=O)N2CCOCC2)/C3=C(C=CC(=C3)Cl)O
In short: (§1)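 Thermal stability values are relative to control samples and come from duplicates. They are expressed as log2 fold changes. For measurement, K562 cells (2×10^6 cells/mL) received 10 μM compound for 30 min, and aliquots were heated for 3 min over 48°C-58°C, pooled, and extracted at 4°C in PBS with 0.5% NP-40. Soluble protein, the supernatant after 21,000xg for 90 min, was quantified by TMTpro 16plex LC-MS/MS with equalised channel sums.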

[2] = compound: C1=CC2=C(C=CC(=C2)/C=C\3/C(=O)NC(=NCC4=CC=CS4)S3)N=C1
In short: as §1

[3] = compound: C1=CC=C2C(=C1)C3=NNC4=CC=CC(=C43)C2=O
In short: as §1

[4] = compound: CC(=O)c1cnc2ccc(-c3cc(Cl)c(O)c(Cl)c3)nc2c1N[C@H]1CC[C@H](CN(C)C)CC1
In short: as §1

erlotinib = compound: C#Cc1cccc(Nc2ncnc3cc(OCCOC)c(OCCOC)cc23)c1 [erlotinib]
In short: as §1

[5] = compound: C1=CC(=CC=C1C2=NC3=C(N2)C=C(C=C3)C(=O)N)OC4=CC=C(C=C4)Cl
In short: as §1

[6] = compound: C1=CC=C(C=C1)C2=NC(=C(N2)C3=CC=NC=C3)C4=CC(=C(C=C4)Cl)O
In short: as §1

IRAK-1-4 Inhibitor I = compound: C1COCCN1CCN2C3=CC=CC=C3N=C2NC(=O)C4=CC(=CC=C4)[N+](=O)[O-] [IRAK-1-4 Inhibitor I]
In short: as §1

ralimetinib = compound: CC(C)(C)Cn1c(N)nc2ccc(-c3[nH]c(C(C)(C)C)nc3-c3ccc(F)cc3)nc21 [ralimetinib]
In short: as §1

[7] = compound: CC(C)C1=C2N=C(C=C(N2N=C1)NCC3=CC=CC=C3)NCCCCCCN
In short: as §1

[8] = compound: CC(C)C[C@@H](C=O)NC(=O)[C@H](CC(C)C)NC(=O)[C@H](CC(C)C)NC(=O)OCc1ccccc1
In short: as §1

pinometostat = compound: CC(C)N(C[C@H]1O[C@@H](n2cnc3c(N)ncnc32)[C@H](O)[C@@H]1O)[C@H]1C[C@@H](CCc2nc3cc(C(C)(C)C)ccc3[nH]2)C1 [pinometostat]
In short: as §1

[9] = compound: C1=CC(=C(C=C1Cl)C2=NC3=NC=CN=C3C(=N2)NC4=CC=NC=C4)F
In short: as §1

[10] = compound: C1=CC2=NC=CN=C2C=C1/C=C/3\C(=O)NC(=O)S3
In short: as §1

[11] = compound: C1CCN(C1)C(=O)NC2=CC=CC(=C2)NC3=NC=C(C(=N3)NCCC4=CN=CN4)Br
In short: as §1

[12] = compound: C1CN(CCC1(CC2=CC=C(C=C2)Cl)N)C3=NC=NC4=C3C=CN4
In short: as §1

ibrutinib = compound: C=CC(=O)N1CCC[C@@H](n2nc(-c3ccc(Oc4ccccc4)cc3)c3c(N)ncnc32)C1 [ibrutinib]
In short: as §1

[13] = compound: CC(C)(O)CC(=O)NCCn1ccc2ncnc(Nc3ccc(Oc4cccc(C(F)(F)F)c4)c(Cl)c3)c21
In short: as §1

[14] = compound: CC1=C(C2=C(C=C1)C(=O)C3=CC=CC=C3N2CCCN)C
In short: as §1

[15] = compound: CC1=C(C(CC(=O)N1)C2=CC=C(C=C2)C(F)(F)F)C(=O)NC3=C(C=C4C(=C3)C=NN4)F
In short: as §1

Measured: log2 fold change

MYOF (UniProt Q9NZM1)
inactive: [1] 0.08 | [2] 0.196 | [3] 0.224 | [4] 0.037

NAIP (UniProt Q13075)
inactive: erlotinib 0.246 | [5] -0.039 | [6] -0.449 | IRAK-1-4 Inhibitor I 0.042 | ralimetinib -0.451 | [7] 0.001 | [8] 0.236 | pinometostat 0.053

NA, A0A494C071
inactive: [1] 0 | [9] 0.197 | [2] -0.005 | [10] 0.079 | [3] -0.018 | [11] 0.136 | [12] 0.114 | IRAK-1-4 Inhibitor I -0.011 | ibrutinib -0.1 | [4] -0.038 | [13] 0.03 | pinometostat -0.034 | [14] -0.141

Two neighbouring records from above, for reference:
NAIP (UniProt Q13075)
inactive: erlotinib 0.246 | [5] -0.039 | [6] -0.449 | IRAK-1-4 Inhibitor I 0.042 | ralimetinib -0.451 | [7] 0.001 | [8] 0.236 | pinometostat 0.053

NA, A0A494C071
inactive: [1] 0 | [9] 0.197 | [2] -0.005 | [10] 0.079 | [3] -0.018 | [11] 0.136 | [12] 0.114 | IRAK-1-4 Inhibitor I -0.011 | ibrutinib -0.1 | [4] -0.038 | [13] 0.03 | pinometostat -0.034 | [14] -0.141

Continuation:

NCOA3 (UniProt Q9Y6Q9)
inactive: erlotinib 0.168 | [9] -0.251 | [5] -0.095 | [10] -0.166 | [6] -0.045 | [11] -0.144 | [12] 0.076 | IRAK-1-4 Inhibitor I -0.029 | ibrutinib -0.048 | ralimetinib -0.049 | [13] 0.055 | [7] -0.202 | [8] 0.045 | pinometostat -0.145 | [15] 0.035 | [14] 0.132

NAMPT (UniProt C9JF35)
inactive: erlotinib 0.205 | [9] 0.084 | [5] -0.004 | [10] 0.122 | [6] 0.088 | [11] 0.104 | [12] -0.051 | IRAK-1-4 Inhibitor I -0.099 | ibrutinib -0.058 | ralimetinib -0.054 | [13] -0.046 | [7] -0.07 | [8] -0.125 | pinometostat -0.148 | [15] 0.075 | [14] -0.023

NDRG2 (UniProt G3V2A6)
inactive: erlotinib 0.009 | [5] -0.026 | [7] 0.19

NBEAL2 (UniProt Q6ZNJ1)
inactive: erlotinib -0.011 | [5] 0.04 | [6] -0.06 | IRAK-1-4 Inhibitor I 0 | ralimetinib 0.168 | [7] -0.153 | [8] 0.272 | pinometostat -0.055
